The values are deposited in ChEMBL (CHEMBL3988442, “University of Dundee, Small-Polar-MMV Screening Library” (2021)).

Protein sequences, listed by entry. Tags and fused reporters are not part of them.
UniProt E9BF75, entry or part of it: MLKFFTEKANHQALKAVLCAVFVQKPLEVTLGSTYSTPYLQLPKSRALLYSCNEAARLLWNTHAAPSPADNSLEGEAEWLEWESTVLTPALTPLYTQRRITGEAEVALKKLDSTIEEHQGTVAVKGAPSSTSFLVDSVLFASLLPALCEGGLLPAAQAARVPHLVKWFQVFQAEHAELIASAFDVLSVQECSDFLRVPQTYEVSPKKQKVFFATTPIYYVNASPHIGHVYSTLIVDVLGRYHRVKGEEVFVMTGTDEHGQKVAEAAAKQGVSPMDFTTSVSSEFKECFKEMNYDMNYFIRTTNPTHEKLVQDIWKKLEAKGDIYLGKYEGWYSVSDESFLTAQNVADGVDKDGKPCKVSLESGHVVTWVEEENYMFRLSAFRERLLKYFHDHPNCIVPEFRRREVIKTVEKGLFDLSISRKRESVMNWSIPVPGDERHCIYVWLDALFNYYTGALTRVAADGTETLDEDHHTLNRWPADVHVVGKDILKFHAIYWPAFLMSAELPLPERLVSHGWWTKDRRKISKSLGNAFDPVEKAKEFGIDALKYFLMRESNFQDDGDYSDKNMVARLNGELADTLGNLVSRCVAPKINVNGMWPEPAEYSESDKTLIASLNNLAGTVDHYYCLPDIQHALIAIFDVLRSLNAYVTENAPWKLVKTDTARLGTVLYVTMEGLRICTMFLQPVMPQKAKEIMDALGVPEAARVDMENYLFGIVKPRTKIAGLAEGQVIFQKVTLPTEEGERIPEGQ

All values are in %.
How 0% and 100% were set is not recorded. Most values in the screen are low, and negative values occur.
This is an unselected part of the compounds tested.
A dash means the value is not listed here; it may have been measured.

Mtb heat-shock: 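Assay on Mycobacterium tuberculosis, filed only as a heat shock assay from Cornell; the read-out is not stated. The concentration is filed as 10 mM, unlikely as a test dose, so the dose is not known. Direction is inferred from retests: higher values go with stronger inhibition. Size under these conditions: about 69,000 compounds, about 930 of them at 50% or above in at least one test.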
LdMetRS: 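Primary screen of methionyl-tRNA synthetase; the read-out is not stated. Target: Methionyl-tRNA synthetase (putative), Leishmania donovani (UniProt E9BF75). The test concentration is not given. Values are per cent inhibition. Size under these conditions: about 68,000 compounds, about 24 of them at 50% or above in at least one test.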
Mtb growth Cornell: 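Whole-cell assay for inhibitors of Mycobacterium tuberculosis growth, labelled Cornell in the record; the read-out is not stated. The concentration is filed as 10 mM, unlikely as a test dose, so the dose is not known. The record gives no direction; compounds strong in two other growth screens of this library score well above the rest, so higher reads as stronger inhibition. About 53,000 compounds were tested under these conditions; 1.7% (about 900) showed 50% or more at least once.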

- CC(NC(=O)c1cccs1)C(=O)NCc1cccnc1N1CCCCC1 (stereo not drawn) | Mtb heat-shock: 3.974%; LdMetRS: 12.55%; Mtb growth Cornell: 14.05%
- CCN(CC)S(=O)(=O)N1C[C@@H](c2ccccc2)[C@H]2[C@H]1CCCCCN2C | LdMetRS: 22.15%
- Cn1cc(-c2nc(C3CCN(S(C)(=O)=O)CC3)cc3c2ncn3C)cn1 | Mtb heat-shock: -11.13%; LdMetRS: 1.449%; Mtb growth Cornell: -32.16%
- O=C(Cc1ccc(O)c(Cl)c1)N1CCN(CC2CC2)[C@@H]2CS(=O)(=O)C[C@@H]21 | LdMetRS: 3.54%
- CCC(CC)C(CNC(=O)Nc1cnn(CCOC)c1)N(C)C (stereo not drawn) | Mtb heat-shock: -0.4098%; LdMetRS: 9.408%; Mtb growth Cornell: 16.82%
- CCOC(C)c1nc(COc2nc(C)no2)cs1 (stereo not drawn) | Mtb heat-shock: 11.04%; LdMetRS: 3.008%; Mtb growth Cornell: -4.098%
- COC(=O)C(C)(C)C(C)(C)NC(=O)Nc1nnc(-c2ccccn2)s1 | Mtb heat-shock: 21.17%; LdMetRS: 12.85%; Mtb growth Cornell: -6.823%
- COc1ccc2c(c1)OCC(CNC(=O)c1cnc(O)cn1)C2 (stereo not drawn) | Mtb heat-shock: 9.204%; LdMetRS: 16.82%; Mtb growth Cornell: -5.377%
- Cc1ccccc1CN1CCN(CC(=O)Nc2cccnc2)CC1 | Mtb heat-shock: 1.139%; LdMetRS: 19.44%
- CCOc1ccc(C(=O)NC2CCN(c3ncccn3)CC2)cc1C | Mtb heat-shock: -6.002%; LdMetRS: 16.03%
- CC1=CCN(S(=O)(=O)c2cccc(C(=O)N3CCOCC3)c2)CC1 | Mtb heat-shock: 7.926%; LdMetRS: 8.01%; Mtb growth Cornell: -11.94%
- CC(C)N(C)S(=O)(=O)N(Cc1cccs1)CC1CCCO1 (stereo not drawn) | Mtb heat-shock: -17.79%; LdMetRS: -1.799%; Mtb growth Cornell: -4.24%
- Cc1ccc2c(c1)C1(CCNCC1)CC2NC1CC1 (stereo not drawn) | LdMetRS: 9.87%
- [H][C@@]12CCN(C(=O)C3CCOCC3)C[C@@]1([H])O[C@@H](c1nnc(C)[nH]1)C2 | Mtb heat-shock: -51.11%; Mtb growth Cornell: 20.37%
- N[C@H]1CC[C@@H](CN2CCCn3nc(CNC(=O)C4CCC4)cc3C2)CC1 | Mtb heat-shock: -2.026%; LdMetRS: 13.38%; Mtb growth Cornell: -12.57%
- CNC(=O)NC(=O)CN1CCc2c(Br)ccc(F)c2C1 | Mtb heat-shock: -0.9364%; LdMetRS: 12.57%; Mtb growth Cornell: 10.72%
- [H][C@@]12COC[C@]1(COCC1CC1)CN(C(=O)C1=CCCC1)C2 | Mtb heat-shock: 2.023%; Mtb growth Cornell: 8.751%
- COc1ccccc1-c1ncc(CN2CCCC[C@H](N(C)C)C2)s1 | Mtb heat-shock: 14.14%; LdMetRS: 17.1%; Mtb growth Cornell: 7.749%
- Cl.NC(CC1CCCC1)c1ccccc1 (stereo not drawn) | Mtb heat-shock: -17.85%; Mtb growth Cornell: 23.09%
- CN1CCN([C@@H]2CN(C(=O)c3ccnnc3)[C@@H]3CCCO[C@H]23)CC1 | LdMetRS: 16.06%
- N#CCCSc1sc2c(O)cc(O)nc2c1C#N | Mtb heat-shock: -23.8%; LdMetRS: 5.135%; Mtb growth Cornell: -30.58%
- CN1CCN(c2ccc(NC(=O)c3ccoc3)c(C(F)(F)F)c2)CC1 | Mtb heat-shock: -11.25%; LdMetRS: 9.409%; Mtb growth Cornell: 12.03%
- [H][C@]12CNC[C@@]1(C(=O)NCCCOC(C)C)CN(S(C)(=O)=O)C2 | Mtb heat-shock: -21.98%
- CCS(=O)(=O)N1CCC(Nc2ccc(C#N)cc2F)CC1 | Mtb heat-shock: 4.693%; LdMetRS: 9.218%; Mtb growth Cornell: -5.643%
- CC(C)c1nc(C2CCCN2CCS(=O)(=O)c2ccccc2)no1 (stereo not drawn) | Mtb heat-shock: -6.89%; LdMetRS: 12.72%
- CN(C)c1cc(CNc2cncc(-n3cccn3)n2)ccn1 | Mtb heat-shock: -0.4058%; LdMetRS: 19.89%
- CC(=O)Nc1ccc(CN2C[C@H]3CC[C@@H]2CN(c2ncccn2)C3)cc1 | LdMetRS: 8.13%
- C[C@H]1CN(CC2CCOCC2)C[C@@]12CCN(Cc1cccnc1)C2=O | LdMetRS: 15.71%
- CC(O)CN1CCN(C(=O)CN(C)c2ccc(Cl)cn2)CC1 (stereo not drawn) | Mtb heat-shock: -5.482%; LdMetRS: 8.333%
- Cc1cc(C)n(CCCN(C)Cc2cn[nH]c2-c2ccc(F)cc2)n1 | Mtb heat-shock: 3.658%; LdMetRS: 14.21%
- CC(C)Nc1ncccc1C(=O)NCc1ccnn1C | Mtb heat-shock: -36.82%; LdMetRS: 5.645%; Mtb growth Cornell: -15.25%
- Cc1ncsc1C(=O)N1CCCC(n2cncn2)C1 (stereo not drawn) | Mtb heat-shock: -0.9566%; LdMetRS: 17.66%; Mtb growth Cornell: -11.33%
- CO[C@H]1CN(C(=O)c2cccnc2)[C@@H]2CCCO[C@H]12 | LdMetRS: 15.71%

4 of the entries, repeated:

Compound	Mtb heat-shock	LdMetRS	Mtb growth Cornell
CC(NC(=O)c1cccs1)C(=O)NCc1cccnc1N1CCCCC1 (stereo not drawn)	3.974%	12.55%	14.05%
Cc1ccccc1CN1CCN(CC(=O)Nc2cccnc2)CC1	1.139%	19.44%	-
Cc1ncsc1C(=O)N1CCCC(n2cncn2)C1 (stereo not drawn)	-0.9566%	17.66%	-11.33%
N[C@H]1CC[C@@H](CN2CCCn3nc(CNC(=O)C4CCC4)cc3C2)CC1	-2.026%	13.38%	-12.57%